Tested on: mSWI/SNF complexes
Test: mSWI/SNF complex purification with HA-tagged baits and mass spectrometry (peptide counts)
Design: species or system human
[1] = 293_HA-BRD7 bait purification, mass spectrometry, total peptide count per identified protein
[2] = 293_HA-BRD7 bait purification, mass spectrometry, unique peptide count per identified protein

B1: NXN (protein, UniProt Q6DKJ4 2-435, looked up)
Nucleoredoxin: SGFLEELLGEKLVTGGGEEVDVHSLGARGISLLGLYFGCSLSAPCAQLSASLAAFYGRLRGDAAAGPGPGAGAGAAAEPEPRRRLEIVFVSSDQDQRQWQDFVRDMPWLALPYKEKHRKLKLWNKYRISNIPSLIFLDATTGKVVCRNGLLVIRDDPEGLEFPWGPKPFREVIAGPLLRNNGQSLESSSLEGSHVGVYFSAHWCPPCRSLTRVLVESYRKIKEAGQNFEIIFVSADRSEESFKQYFSEMPWLAVPYTDEARRSRLNRLYGIQGIPTLIMLDPQGEVITRQGRVEVLNDEDCREFPWHPKPVLELSDSNAAQLNEGPCLVLFVDSEDDGESEAAKQLIQPIAEKIIAKYKAKEEEAPLLFFVAGEDDMTDSLRDYTNLPEAAPLLTILDMSARAKYVMDVEEITPAIVEAFVNDFLAEKLKPEPI
[1]
  Total: 1
[2]
  Unique: 1

B2: ##NT5DC2 (protein, UniProt Q9H857 1-520, looked up)
5'-nucleotidase …: MRVESGSAQERGILLESLSTLLEKTTASHEGRAPGNRELTDLLPPEVCSLLNPAAIYANNEISLRDVEVYGFDYDYTLAQYADALHPEIFSTARDILIEHYKYPEGIRKYDYNPSFAIRGLHYDIQKSLLMKIDAFHYVQLGTAYRGLQPVPDEEVIELYGGTQHIPLYQMSGFYGKGPSIKQFMDIFSLPEMALLSCVVDYFLGHSLEFDQAHLYKDVTDAIRDVHVKGLMYQWIEQDMEKYILRGDETFAVLSRLVAHGKQLFLITNSPFSFVDKGMRHMVGPDWRQLFDVVIVQADKPSFFTDRRKPFRKLDEKGSLQWDRITRLEKGKIYRQGNLFDFLRLTEWRGPRVLYFGDHLYSDLADLMLRHGWRTGAIIPELEREIRIINTEQYMHSLTWQQALTGLLERMQTYQDAESRQVLAAWMKERQELRCITKALFNAQFGSIFRTFHNPTYFSRRLVRFSDLYMASLSCLLNYRVDFTFYPRRTPLQHEAPLWMDQLCTGCMKTPFLGDMAHIR
[1]
  Total: 1
[2]
  Unique: 1

B3: UBA1 (protein, UniProt P22314 2-1058, looked up)
Ubiquitin-like …: SSSPLSKKRRVSGPDPKPGSNCSPAQSVLSEVPSVPTNGMAKNGSEADIDEGLYSRQLYVLGHEAMKRLQTSSVLVSGLRGLGVEIAKNIILGGVKAVTLHDQGTAQWADLSSQFYLREEDIGKNRAEVSQPRLAELNSYVPVTAYTGPLVEDFLSGFQVVVLTNTPLEDQLRVGEFCHNRGIKLVVADTRGLFGQLFCDFGEEMILTDSNGEQPLSAMVSMVTKDNPGVVTCLDEARHGFESGDFVSFSEVQGMVELNGNQPMEIKVLGPYTFSICDTSNFSDYIRGGIVSQVKVPKKISFKSLVASLAEPDFVVTDFAKFSRPAQLHIGFQALHQFCAQHGRPPRPRNEEDAAELVALAQAVNARALPAVQQNNLDEDLIRKLAYVAAGDLAPINAFIGGLAAQEVMKACSGKFMPIMQWLYFDALECLPEDKEVLTEDKCLQRQNRYDGQVAVFGSDLQEKLGKQKYFLVGAGAIGCELLKNFAMIGLGCGEGGEIIVTDMDTIEKSNLNRQFLFRPWDVTKLKSDTAAAAVRQMNPHIRVTSHQNRVGPDTERIYDDDFFQNLDGVANALDNVDARMYMDRRCVYYRKPLLESGTLGTKGNVQVVIPFLTESYSSSQDPPEKSIPICTLKNFPNAIEHTLQWARDEFEGLFKQPAENVNQYLTDPKFVERTLRLAGTQPLEVLEAVQRSLVLQRPQTWADCVTWACHHWHTQYSNNIRQLLHNFPPDQLTSSGAPFWSGPKRCPHPLTFDVNNPLHLDYVMAAANLFAQTYGLTGSQDRAAVATFLQSVQVPEFTPKSGVKIHVSDQELQSANASVDDSRLEELKATLPSPDKLPGFKMYPIDFEKDDDSNFHMDFIVAASNLRAENYDIPSADRHKSKLIAGKIIPAIATTTAAVVGLVCLELYKVVQGHRQLDSYKNGFLNLALPFFGFSEPLAAPRHQYYNQEWTLWDRFEVQGLQPNGEEMTLKQFLDYFKTEHKLEITMLSQGVSMLYSFFMPAAKLKERLDQPMTEIVSRVSKRKLGRHVRALVLELCCNDESGEDVEVPYVRYTIR
[1]
  Total: 1
[2]
  Unique: 1

B4: SLC25A4 (protein, UniProt P12235 2-298, looked up)
ADP/ATP translocase 1: GDHAWSFLKDFLAGGVAAAVSKTAVAPIERVKLLLQVQHASKQISAEKQYKGIIDCVVRIPKEQGFLSFWRGNLANVIRYFPTQALNFAFKDKYKQLFLGGVDRHKQFWRYFAGNLASGGAAGATSLCFVYPLDFARTRLAADVGKGAAQREFHGLGDCIIKIFKSDGLRGLYQGFNVSVQGIIIYRAAYFGVYDTAKGMLPDPKNVHIFVSWMIAQSVTAVAGLVSYPFDTVRRRMMMQSGRKGADIMYTGTVDCWRKIAKDEGAKAFFKGAWSNVLRGMGGAFVLVLYDEIKKYV
293_HA-BRD7: HA-BRD7 bait purification, total peptide count per co-purified protein
  Total: 16
293_HA-BRD7: HA-BRD7 bait purification, unique peptide count per co-purified protein
  Unique: 11
293_HA-DPF2 purification, total peptides
  Total: 1
293_HA-DPF2 purification, unique peptides
  Unique: 1

B5: FAM83G (protein, UniProt A6ND36 2-823, looked up)
Protein FAM83G: AFSQVQCLDDNHVNWRSSESKPEFFYSEEQRLALEALVARGRDAFYEVLKRENIRDFLSELELKRILETIEVYDPGSEDPRGTGPSQGPEDNGVGDGEEASGADGVPIEAEPLPSLEYWPQKSDRSIPQLDLGWPDTIAYRGVTRASVYMQPPIDGQAHIKEVVRKMISQAQKVIAVVMDMFTDVDIFKDLLDAGFKRKVAVYIIVDESNVKYFLHMCERACMHLGHLKNLRVRSSGGTEFFTRSATKFKGALAQKFMFVDGDRAVCGSYSFTWSAARTDRNVISVLSGQVVEMFDRQFQELYLMSHSVSLKGIPMEKEPEPEPIVLPSVVPLVPAGTVAKKLVNPKYALVKAKSVDEIAKISSEKQEAKKPLGLKGPALAEHPGELPELLPPIHPGLLHLERANMFEYLPTWVEPDPEPGSDILGYINIIDPNIWNPQPSQMNRIKIRDTSQASAQHQLWKQSQDSRPRPEPCPPPEPSAPQDGVPAENGLPQGDPEPLPPVPKPRTVPVADVLARDSSDIGWVLELPKEEAPQNGTDHRLPRMAGPGHAPLQRQLSVTQDDPESLGVGLPNGLDGVEEEDDDDYVTLSDQDSHSGSSGRGPGPRRPSVASSVSEEYFEVREHSVPLRRRHSEQVANGPTPPPRRQLSAPHITRGTFVGPQGGSPWAQSRGREEADALKRMQAQRSTDKEAQGQQFHHHRVPASGTRDKDGFPGPPRYRSAADSVQSSTRNAGPAMAGPHHWQAKGGQVPRLLPDPGSPRLAQNARPMTDGRATEEHPSPFGIPYSKLSQSKHLKARTGGSQWASSDSKRRAQAPRDRKDP
[1]
  Total: 1
[2]
  Unique: 1

B6: C6orf163 (protein, UniProt Q5TEZ5 1-329, looked up)
Uncharacterized protein …: MIRNSDYKNFVCCAVCNKIIPPAPFGKTFKRIHEYKPLKTRFYTHKDILDIGANILKKEEQFQEDILREHIAKAEAEVWAQANERQKQAVEKALEEANDRHKIEIQILKEEHQKDLQEVTAKTKTEMYQNMDDEMKREHLAAEQRMVHRIQRIMMECHREKVEAVEKARAEERHIAQEAIQAQKSKAVEEIVNTGVTVIKDEKTSVARLMREKEHEMSILYGIAQRQRQEEVQEVLQEAEKTHQATLGNMMDKLANTQGELLSIAKQLGIMTNWKDFLEEELQETRMAFQKYINYTFPKLSPGHADFILPERKKTPSNLVIKENKTTLD
[1]
  Total: 1
[2]
  Unique: 1

B7: ##CEBPZ (protein, UniProt Q03701 1-1054, looked up)
CCAAT/enhancer-binding …: MAAVKEPLEFHAKRPWRPEEAVEDPDEEDEDNTSEAENGFSLEEVLRLGGTKQDYLMLATLDENEEVIDGGKKGAIDDLQQGELEAFIQNLNLAKYTKASLVEEDEPAEKENSSKKEVKIPKINNKNTAESQRTSVNKVKNKNRPEPHSDENGSTTPKVKKDKQNIFEFFERQTLLLRPGGKWYDLEYSNEYSLKPQPQDVVSKYKTLAQKLYQHEINLFKSKTNSQKGASSTWMKAIVSSGTLGDRMAAMILLIQDDAVHTLQFVETLVNLVKKKGSKQQCLMALDTFKELLITDLLPDNRKLRIFSQRPFDKLEQLSSGNKDSRDRRLILWYFEHQLKHLVAEFVQVLETLSHDTLVTTKTRALTVAHELLCNKPEEEKALLVQVVNKLGDPQNRIATKASHLLETLLCKHPNMKGVVSGEVERLLFRSNISSKAQYYAICFLNQMALSHEESELANKLITVYFCFFRTCVKKKDVESKMLSALLTGVNRAYPYSQTGDDKVREQIDTLFKVLHIVNFNTSVQALMLLFQVMNSQQTISDRYYTALYRKMLDPGLMTCSKQAMFLNLVYKSLKADIVLRRVKAFVKRLLQVTCQQMPPFICGALYLVSEILKAKPGLRSQLDDHPESDDEENFIDANDDEDMEKFTDADKETEIVKKLETEETVPETDVETKKPEVASWVHFDNLKGGKQLNKYDPFSRNPLFCGAENTSLWELKKLSVHFHPSVALFAKTILQGNYIQYSGDPLQDFTLMRFLDRFVYRNPKPHKGKENTDSVVMQPKRKHFIKDIRHLPVNSKEFLAKEESQIPVDEVFFHRYYKKVAVKEKQKRDADEESIEDVDDEEFEELIDTFEDDNCFSSGKDDMDFAGNVKKRTKGAKDNTLDEDSEGSDDELGNLDDDEVSLGSMDDEEFAEVDEDGGTFMDVLDDESESVPELEVHSKVSTKKSKRKGTDDFDFAGSFQGPRKKKRNLNDSSLFVSAEEFGHLLDENMGSKFDNIGMNAMANKDNASLKQLRWEAERDDWLHNRDAKSIIKKKKHFKKKRIKTTQKTKKQRK
[1]
  Total: 1
[2]
  Unique: 1

B8: IKZF1 (protein, UniProt Q13422 1-519, looked up)
DNA-binding protein Ikaros: MDADEGQDMSQVSGKESPPVSDTPDEGDEPMPIPEDLSTTSGGQQSSKSDRVVASNVKVETQSDEENGRACEMNGEECAEDLRMLDASGEKMNGSHRDQGSSALSGVGGIRLPNGKLKCDICGIICIGPNVLMVHKRSHTGERPFQCNQCGASFTQKGNLLRHIKLHSGEKPFKCHLCNYACRRRDALTGHLRTHSVGKPHKCGYCGRSYKQRSSLEEHKERCHNYLESMGLPGTLYPVIKEETNHSEMAEDLCKIGSERSLVLDRLASNVAKRKSSMPQKFLGDKGLSDTPYDSSASYEKENEMMKSHVMDQAINNAINYLGAESLRPLVQTPPGGSEVVPVISPMYQLHKPLAEGTPRSNHSAQDSAVENLLLLSKAKLVPSEREASPSNSCQDSTDTESNNEEQRSGLIYLTNHIAPHARNGLSLKEEHRAYDLLRAASENSQDALRVVSTSGEQMKVYKCEHCRVLFLDHVMYTIHMGCHGFRDPFECNMCGYHSQDRYEFSSHITRGEHRFHMS
[1]
  Total: 1
[2]
  Unique: 1

— patent US12729225B2, “Non-canonical SWI/SNF complex and uses thereof” (Dana-Farber Cancer Institute, Inc., priority 2018, dated 2026)
